PubChem BioAssay AID652259 – Drosophila RNAi Screening Center | 2013
In all, the deposit lists about 22,000 reagents; shown is a random part of those that have a named target and a result. In the full data, 233 (1.1%) were called active. 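Light values are raw, unnormalised plate reads; the ratio scores behind the reporter calls were not deposited.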 Reagents against one gene are numbered here. Names joined by + are all predicted targets of the reagent. Reagent sequences are not shown. The record does not give: the amount of reagent, the time to read-out, the dose of the treatment.

Purpose: 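Genome-wide hunt for genes that control Wingless pathway activity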 (primary screen)
Cell system: Drosophila clone 8 imaginal disc epithelial cells
Knock-down reagent: long dsRNA against Drosophila genes
Treatment: pathway stimulated by co-transfected Wingless expression plasmid
Measured: 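Dual luciferase reads per well after Wingless plasmid stimulation: reporter firefly light and Renilla control light; activity is firefly divided by Renilla, a ratio not deposited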
Reading the numbers: firefly reporter light: higher = more Wg reporter light, before normalisation; Renilla control light: higher = more transfected or surviving cells
Hit rule: 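a knock-down is a candidate when at least two out of four statistical tests show it departing from its plate mean; one test alone signals a weak candidate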
Meaning of the calls: active = candidate regulator (raises or lowers reporter); inactive = not a candidate

The opening 6 records, to show the layout:
gene | reagent no. | reporter change call, replicate 1 | firefly reporter light, replicate 1 | firefly reporter light, replicate 2 | Renilla control light, replicate 1 | Renilla control light, replicate 2 | Outcome
CG2065 | 1 | – | 4800 | 9753 | 1393 | 5155 | inactive
CG2065 | 2 | – | 6.07e5 | 6.57e5 | 3.59e5 | 3.19e5 | inactive
His2B:CG33894 + His2B:CG33872 + His2B:CG33902 + 20 more | 1 | – | 17531 | – | 193 | – | inactive
lncRNA:CR43491 | 1 | – | 1840 | – | 736 | – | inactive
MTF-1 | 1 | – | 2582 | – | 487 | – | inactive
MTF-1 | 2 | – | 8265 | – | 3377 | – | inactive

The listing, from the start:
gene | reagent no. | reporter change call, replicate 1 | firefly reporter light, replicate 1 | firefly reporter light, replicate 2 | Renilla control light, replicate 1 | Renilla control light, replicate 2 | Outcome
CG2065 | 1 | – | 4800 | 9753 | 1393 | 5155 | inactive
CG2065 | 2 | – | 6.07e5 | 6.57e5 | 3.59e5 | 3.19e5 | inactive
His2B:CG33894 + His2B:CG33872 + His2B:CG33902 + 20 more | 1 | – | 17531 | – | 193 | – | inactive
lncRNA:CR43491 | 1 | – | 1840 | – | 736 | – | inactive
MTF-1 | 1 | – | 2582 | – | 487 | – | inactive
MTF-1 | 2 | – | 8265 | – | 3377 | – | inactive
MTF-1 | 3 | – | 3.44e5 | 3.55e5 | 1.70e5 | 1.65e5 | inactive
glo | 1 | – | 25319 | – | 7590 | – | inactive
CG14230 | 1 | – | 3105 | 7730 | 1089 | 2404 | inactive
CG14989 | 1 | – | 6549 | – | 1996 | – | inactive
CG12177 | 1 | – | 39299 | – | 18439 | – | inactive
CG12177 | 2 | – | 7.34e5 | 7.38e5 | 4.63e5 | 3.63e5 | inactive
Ars2 | 1 | – | 16960 | – | 5239 | – | inactive
Vml | 1 | – | 4405 | – | 1430 | – | inactive
Vml | 2 | – | 33512 | – | 19292 | – | inactive
CG3505 | 1 | – | 5216 | – | 2369 | – | inactive
CG17028 | 1 | – | 5493 | – | 2441 | – | inactive
Icmt | 1 | – | 5372 | – | 2631 | – | inactive
Acbp1 | 1 | – | 2656 | 8470 | 1211 | 4298 | inactive
Pur-alpha | 1 | – | 3191 | 9211 | 1329 | 3530 | inactive
CG31248 | 1 | – | 5.51e5 | 5.18e5 | 1.65e5 | 1.34e5 | inactive
CG33494 | 1 | – | 4000 | – | 1714 | – | inactive
LBR | 1 | – | 19344 | – | 4861 | – | inactive
Idgf1 | 1 | – | 9825 | – | 3012 | – | inactive
ND4 (retired record) | 1 | – | 25099 | – | 1802 | – | inactive
CG34168 | 1 | – | 3290 | 7031 | 1575 | 3064 | inactive
CG43693 | 1 | – | 3890 | – | 2087 | – | inactive
CG43693 | 2 | – | 6519 | – | 2348 | – | inactive
CG16741 | 1 | – | 13483 | – | 2602 | – | inactive
CG13539 | 1 | – | 2037 | 6986 | 228 | 2148 | inactive
Gbeta5 | 1 | – | 11574 | – | 7146 | – | inactive
CG15279 | 1 | – | 5764 | – | 2376 | – | inactive
CG9240 | 1 | – | 24370 | – | 10522 | – | inactive
CG34200 | 1 | – | 24368 | – | 12258 | – | inactive
Pef | 1 | – | 14800 | – | 3287 | – | inactive
Odc1 | 1 | – | 8448 | – | 3009 | – | inactive
br | 1 | – | 3576 | – | 1504 | – | inactive
br | 2 | – | 22802 | – | 16736 | – | inactive
br | 3 | – | 32268 | 6.82e5 | 10902 | 3.34e5 | inactive
br | 4 | – | 24685 | – | 9388 | – | inactive
ebi | 1 | Wg reporter activity lowered | 4595 | – | 3814 | – | active
NSD | 1 | – | 5788 | – | 2832 | – | inactive
Rtnl2 | 1 | – | 22434 | – | 6389 | – | inactive
Rtnl2 | 2 | – | 6.72e5 | 6.97e5 | 3.40e5 | 2.79e5 | inactive
CG15743 | 1 | – | 23473 | – | 11930 | – | inactive
Tgi | 1 | – | 5484 | – | 2756 | – | inactive
Tgi | 2 | – | 7296 | – | 2240 | – | inactive
Cont | 1 | – | 7648 | – | 2648 | – | inactive
CG11286 | 1 | – | 13069 | – | 4007 | – | inactive
